Results from US11352366B2, “2-aminoquinazolinone derivative” (SUMITOMO DAINIPPON PHARMA CO., LTD., priority 2019, dated 2022).
For at least one compound, name, drawing or mass did not settle the structure.

System: Wobbler mice
Assay: Suppression of progression of movement disorder in Wobbler mice (amyotrophic lateral sclerosis model), rotarod test
Assay type: in vivo
Settings: 0.25, 0.5 and 1.0 mg/g of feed for 6 weeks; FIG. 1

With `O=c1c2cc(F)ccc2nc(Nc2ccccc2)n1-c1ccccc1` [Example 1, 2-anilino-6-fluoro-3-phenylquinazolin-4 (3H)-one] the “effect of suppressing progression of movement disorders (rotarod, latency to fall)” value was “effect of suppressing progression in movement disorders”.
